Test results reported in the supplement of paper PMC10727501.
Some of the results follow. Repeats in this data set agree poorly, so a single value says little.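 Free-swimming zebrafish larvae were assessed for O-bend response probability to dark flashes (naive: first five; training: remaining flashes across four 60-flash blocks; test: later 60-flash block) and for OMR turning toward alternating leftward/rightward LED motion. Six treated larvae were compared against sixty 0.1% DMSO controls; hits required |SSMD|≥2.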

Legend:
Conditions in all cases: 10 µM; pre-incubation: 30-90 min
[1] = tested on: Danio rerio larvae (5 dpf, TLF); test: OMR-Perf (SSMD vs DMSO vehicle); higher = higher than vehicle (e.g. higher dark-flash O-bend response probability, or better optomotor performance)
[2] = tested on: Danio rerio larvae (5 dpf, TLF); test: Prob-Test (SSMD vs DMSO vehicle); higher = higher than vehicle (e.g. higher dark-flash O-bend response probability, or better optomotor performance)
[3] = tested on: Danio rerio larvae (5 dpf, TLF); test: Prob-Naive (SSMD vs DMSO vehicle); higher = higher than vehicle (e.g. higher dark-flash O-bend response probability, or better optomotor performance)
[4] = tested on: Danio rerio larvae (5 dpf, TLF); test: Prob-Train (SSMD vs DMSO vehicle); higher = higher than vehicle (e.g. higher dark-flash O-bend response probability, or better optomotor performance)

Compound	OMR-Perf [1]	Prob-Test [2]	Prob-Naive [3]	Prob-Train [4]
C[C@@H]1COCCN1c1cc(C2(S(C)(=O)=O)CC2)nc(-c2cccc3[nH]ccc23)n1	0.468	-0.137	-1.03	0.0336
Cl.OC(CCN1CCCCC1)(c1ccccc1)C1CC2C=CC1C2 (stereo not given) [Biperiden HCl]	-0.645	-0.908	0.0775	-0.802
NS(=O)(=O)c1cc(Cl)c(Cl)c(S(N)(=O)=O)c1 [Dichlorphenamide]	-0.674	-0.0652	-0.0225	0.309
C=CC(=O)Nc1cccc(Sc2nc(Nc3ccc(N4CCN(C)CC4)cc3)ncc2Cl)c1	-0.0495	-0.408	-0.043	-0.195
COc1cc2nccc(Oc3ccc(NC(=O)NC4CC4)c(Cl)c3)c2cc1C(N)=O [Lenvatinib (E7080)]	0.539	0.0997	0.173	0.0994
Cc1cc2c(F)c(Oc3ncnn4cc(OC[C@@H](C)O)c(C)c34)ccc2[nH]1	-0.344	-0.501	-0.24	-0.501
COc1ccc(C(=O)CC(=O)c2ccc(C(C)(C)C)cc2)cc1 [Avobenzone]	0.117	-1.18	-0.286	-0.854
CCCCCCCCCCCCCCCCCCCCCCO [Docosanol (Abreva)]	0.0863	-0.254	0.448	0.0335
CCCC(=O)Nc1ccc(OCC(O)CNC(C)C)c(C(C)=O)c1.Cl (stereo not given) [Acebutolol HCl]	-0.12	-0.359	-0.245	-0.484
O=C([O-])CC(O)(CC(=O)[O-])C(=O)[O-].[Li+].[Li+].[Li+] [Lithium Citrate]	-0.314	0.0877	0.444	-0.0239
Nc1ncn([C@H]2C[C@H](O)[C@@H](CO)O2)c(=O)n1 [Decitabine]	-0.259	-0.112	0.0243	0.195
CS(=O)(=O)Nc1ccc([N+](=O)[O-])cc1Oc1ccccc1 [Nimesulide]	-0.969	0.761	0.13	0.658
Cc1coc2c1C(=O)C(=O)c1c-2ccc2c1CCCC2(C)C [Tanshinone IIA]	-1.01	-0.276	0.208	-0.503
N[C@@H](CC(=O)N1CCn2c(nnc2C(F)(F)F)C1)Cc1cc(F)c(F)cc1F.O.O=P(=O)OO.[HH] [Sitagliptin phosphate monohydrate]	-0.562	0.411	0.464	0.412
CN(C)c1ccc(O)c2c1C[C@@H]1C[C@H]3[C@H](N(C)C)C(O)=C(C(N)=O)C(=O)[C@@]3(O)C(O)=C1C2=O.Cl [Minocycline HCl]	-0.0705	-0.968	0.0912	-0.373
C/C(=C\c1ccc(C(=O)O)cc1)c1ccc2c(c1)C(C)(C)CCC2(C)C [TTNPB (Arotinoid Acid)]	-0.276	0.11	-0.433	0.0615
O=C(c1ccc(C(=O)N2CCC(N3CCCC3)CC2)c(Nc2ccccc2)c1)N1CCC(N2CCCC2)CC1	-0.207	-0.67	0.587	-0.02
CCC(=O)Nc1cccc(Oc2nc(Nc3ccc(N4CCN(C)CC4)cc3OC)ncc2Cl)c1	-0.586	-0.125	0.227	-0.254
CC(=O)c1cc([N+](=O)[O-])c(Sc2cccc(Cl)c2Cl)s1	-1.07	-2.23	-1.55	-1.62
CO/N=C(\C(=O)N[C@H]1C(=O)N2C(C(=O)OCOC(=O)C(C)(C)C)=C(/C=C\c3scnc3C)CS[C@H]12)c1csc(N)n1 [Cefditoren Pivoxil]	0.0459	-0.00123	0.26	0.687
CC(C(=O)O)c1ccc2c(c1)CC(=O)c1ccccc1S2 (stereo not given) [Zaltoprofen]	0.00084	-0.0198	0.421	-0.209
Nc1nc(N)nc(-c2cc(Cl)ccc2Cl)n1 [Irsogladine]	-0.358	-0.119	0.759	-0.371
C#Cc1cccc(Nc2ncnc3cc(OCCOC)c(OCCO)cc23)c1.Cl	-0.488	-0.215	-0.283	-0.299
CC(C)CC(=O)Nc1n[nH]c2c1CN(C(=O)C1CCN(C)CC1)C2(C)C	-0.432	0.234	0.564	0.175
O=C(O)c1ccc(-n2nc(-c3ccccc3O)nc2-c2ccccc2O)cc1 [Deferasirox]	0.069	-0.242	-0.911	-1.45

Two successive compounds from above, quoted:
Compound	OMR-Perf [1]	Prob-Test [2]	Prob-Naive [3]	Prob-Train [4]
NS(=O)(=O)c1cc(Cl)c(Cl)c(S(N)(=O)=O)c1 [Dichlorphenamide]	-0.674	-0.0652	-0.0225	0.309
C=CC(=O)Nc1cccc(Sc2nc(Nc3ccc(N4CCN(C)CC4)cc3)ncc2Cl)c1	-0.0495	-0.408	-0.043	-0.195
